Test results: US20170248601A1 (MIT, published 2017)

Experiments:
[1] = target: T1, ATP-trapped E171Q mutant of human TorsinA (residues 51-332) (human, UniProt O14656 51-332); test: co-expression and co-purification
T1 construct: also called TorsinAEQ
T1 sequence: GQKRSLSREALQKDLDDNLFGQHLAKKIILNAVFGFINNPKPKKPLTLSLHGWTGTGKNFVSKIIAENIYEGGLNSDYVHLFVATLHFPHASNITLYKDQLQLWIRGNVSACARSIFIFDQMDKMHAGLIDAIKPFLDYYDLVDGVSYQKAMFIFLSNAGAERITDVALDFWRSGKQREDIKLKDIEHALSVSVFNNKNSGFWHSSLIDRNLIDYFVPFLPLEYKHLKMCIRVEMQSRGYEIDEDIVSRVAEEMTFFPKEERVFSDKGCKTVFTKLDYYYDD

[2] = target: T2, His-tagged TorsinAEQ (residues 51-332) deltaMet304 (human, UniProt O14656 51-332); test: Ni-affinity co-purification, co-expressed in bacteria without VHH-BS2, SDS-PAGE
T2 construct: Single-residue deletion, with '-' meaning deleted; not shown: N-terminal 3C-cleavable 10xHis-7xArg tag
T2 sequence: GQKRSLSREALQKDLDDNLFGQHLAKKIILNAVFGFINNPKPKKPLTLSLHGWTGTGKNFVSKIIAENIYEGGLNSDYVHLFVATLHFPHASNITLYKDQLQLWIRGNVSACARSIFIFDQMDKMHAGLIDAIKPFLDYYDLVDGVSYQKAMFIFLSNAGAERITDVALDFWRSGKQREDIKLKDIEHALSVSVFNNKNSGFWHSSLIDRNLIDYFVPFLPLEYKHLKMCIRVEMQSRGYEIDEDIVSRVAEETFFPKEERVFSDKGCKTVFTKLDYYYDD
Protocol: (§1) For the non-structural analysis of TorsinA and LULL1 variants, the pETDuet-1-based expression plasmid was transformed into LOBSTR(DE3) RIL cells without co-expressing nanobody VHH-BS2. Ni²⁺-affinity purification was performed as described above and bound protein was eluted. Aliquots from the Ni²⁺-eluate and the total lysate were collected and analyzed by SDS-PAGE gel electrophoresis.

[3] = target: T3, His-tagged TorsinAEQ (residues 51-332) deltaThr305 (human, UniProt O14656 51-332); test: as above
T3 construct: Single-residue deletion, with '-' meaning deleted; not shown: N-terminal 3C-cleavable 10xHis-7xArg tag
T3 sequence: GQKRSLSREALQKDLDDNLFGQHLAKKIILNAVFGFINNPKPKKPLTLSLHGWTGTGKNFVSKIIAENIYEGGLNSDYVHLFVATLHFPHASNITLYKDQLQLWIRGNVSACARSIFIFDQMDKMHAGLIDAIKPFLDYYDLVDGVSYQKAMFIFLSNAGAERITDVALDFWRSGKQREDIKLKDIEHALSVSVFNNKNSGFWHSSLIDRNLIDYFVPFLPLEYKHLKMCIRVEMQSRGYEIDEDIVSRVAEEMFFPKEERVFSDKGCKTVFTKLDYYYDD
Protocol: as §1

B1: luminal activation domain of human LULL1 (residues 233-470) (other)
chain: SSVNSYYSSPAQQVPKNPALEAFLAQFSQLEDKFPGQSSFLWQRGRKFLQKHLNASNPTEPATIIFTAAREGRETLKCLSHHVADAYTSSQKVSPIQIDGAGRTWQDSDTVKLLVDLELSYGFENGQKAAVVHHFESFPAGSTLIFYKYCDHENAAFKDVALVLTVLLEEETLEASVGPRETEEKVRDLLWAKFTNSDTPTSFNHMDSDKLSGLWSRISHLVLPVQPVSSIEEQGCLF
notes: Untagged and co-expressed with TorsinA from pETDuet-1; also called LULL1233-470
B1: binds [1]; no binding [2]; no binding [3].
